Results taken from PMC4954681.
Numbering of substitutions follows the chain as printed. In names and notes the source's numbering stands. No constants are given. Whether binding was seen depends on the method and setting. In cells and extracts the contact can be indirect. Some binding calls cover weakened binding; strength is not graded here. Where a sequence is shown, tags or fusion partners need not be part of it. Blank lines part the entries; values can stand above or below the molecule they belong to.

Chains of the proteins cited; added tags and fusions are not shown. Lines headed by an entry give the natural chain unless they say otherwise; changes in a name come on top.
UniProt P84095: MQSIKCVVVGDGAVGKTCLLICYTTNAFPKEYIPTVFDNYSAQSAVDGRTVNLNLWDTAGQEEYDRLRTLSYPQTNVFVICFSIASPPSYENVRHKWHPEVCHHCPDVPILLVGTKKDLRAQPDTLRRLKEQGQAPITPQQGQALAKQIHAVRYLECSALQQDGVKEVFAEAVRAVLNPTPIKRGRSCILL

Legend:
[1] = molecular target: T1, GST-fused N-terminal RhoG-binding domain of ELMO2 (UniProt Q96JJ3); test: pull-down; 20 ug GST-ELMO-NT bound to glutathione-Sepharose beads, incubated 30 min at 4°C with lysates of HEK293T cells transfected with Myc-RhoG with or without Flag-SGEF and HA-Src-YF; 10 mM Tris-HCl pH 7.5, 100 mM NaCl, 2 mM MgCl2, 1% Nonidet P-40, 10% glycerol; anti-Myc immunoblot; only the target purified
T1 sequence: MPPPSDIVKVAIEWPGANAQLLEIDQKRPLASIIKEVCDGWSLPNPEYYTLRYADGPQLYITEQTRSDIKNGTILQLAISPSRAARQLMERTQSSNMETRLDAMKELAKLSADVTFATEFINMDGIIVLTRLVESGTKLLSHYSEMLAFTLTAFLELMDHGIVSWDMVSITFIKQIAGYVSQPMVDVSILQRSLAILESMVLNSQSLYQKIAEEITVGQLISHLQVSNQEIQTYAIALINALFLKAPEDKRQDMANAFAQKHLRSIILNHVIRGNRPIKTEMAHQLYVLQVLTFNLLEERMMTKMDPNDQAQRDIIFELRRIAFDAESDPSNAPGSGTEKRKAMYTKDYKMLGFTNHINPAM

[2] = molecular target: GST-fused RhoG containing the G15A mutation (UniProt P84095); test: pull-down; GST-RhoG-G15A bound to glutathione-Sepharose beads, incubated 1 h with lysates of HEK293T cells transfected with Flag-SGEF (WT or mutants) alone or together with HA-Src-YF; some cells treated 30 min with 20 uM PP2 or PP3; 20 mM Tris-HCl pH 7.5, 150 mM NaCl, 2 mM MgCl2, 1% Triton X-100; anti-Flag immunoblot; only the target purified

B1: Flag-tagged wild-type SGEF (protein, UniProt D3YYY8 1-869)
chain: MDGESEVDFSSNGVTPLWRRRSTPPLQLLSRSKPRPQSYQSPSGLLITDFPVEELAALPTPQTPVRVPADPDDRTVSRSPQLLSAHRRPVTNGRTVSPDYRAASPRLRRPKSPLVSYAASGGSPKSTSNGTVASPAALLSRASRTPDTPASCATDEDCTGVTASKVSSPIANGLAHKTDSSGPVSQTGQPAGDLELAPSRLSPALPHKSSEQKLPLQRLPSQGNELPNPSVVLSTNSPAALKMGKQQIIPKSLASEIKLSKSNSQNVESHRRLLKVRSMVEGLGAPLGHEGEEGEVDNDMDSPGSLRRGLRSTSYRRAVVSGFDFDSPTSSKKKNRMSQPVLKAVMEDKEKFSSLGRIKKKILKGQGTFDGEENAVLYQNYKEKALDIDSDEEPEAKEQKAEERIVIHHKPLRSTWSQLSAVKRNGLSQTVSQEERKRQEAIFEVISSEHSYLLSLEILIRMFKNSKELTDTMTKTERHHLFSNITDVWEASKKFFTELEARHQNNIFIEDISDIVEKHTASTFDPYVKYCTNEVYQQRTLQKLLATNPSFKEVLSRIESHEDCRNLPMISFLILPMQRVTRLPLLMDTICQKTPKDSPKYEVCKRALKEVSKLVRLCNEGARKMERTEMMYTINSQLEFKIKPFPLVSSSRWLVKRGELTAYVEDTVLFSKRMSKQQVYFFLFNDVLIITKKKSEESYNVNDYSLRDQLLVESCDNEELNSSPGKNPSTMLYSRQSSATHLFTLTVLSNHASEKVDMLLGAETQSERARWITALGHSSGKQPPDRTTLTQVEIIRSFTAKQPDELSLQVADVVLIYQRVGDGWYEGERLRDGERGWFPMECAKEITCQATIDKNVERMGRLLGLETNV
binding [2]: binds

B3: Flag-tagged SGEF-Y530F (protein, UniProt D3YYY8 1-869)
chain: B1 chain with Y530F
binding [2]: binds

Now from value to molecule:

binding [1]: binds
Molecule: Myc-tagged RhoG (from UniProt P84095 1-191)

binding [2]: binds
B2: Flag-tagged SGEF-Y527F (protein, UniProt D3YYY8 1-869)
chain: B1 chain with Y527F
